Source: PubChem BioAssay AID504764 (Drosophila RNAi Screening Center, 2011)
Test: 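Genome-wide screen for regulators of Notch-driven gene expression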 (primary screen). System: Drosophila Kc167 cells. Reagent: long dsRNA against Drosophila genes. Time to read-out: about 5 days (4 days dsRNA, then 24 h after transfection). Conditions: transfection of constitutively active membrane-tethered Notch lacking the extracellular domain, read 24 h later. Measured: 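Firefly luciferase from an E(spl)m3 reporter with active Notch, plus control-promoter and uninduced reporter wells for normalisation; unnormalised counts, duplicate wells a and b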. Scale: induced reporter light, run 1, well a and induced reporter light, run 1, well b: higher = more light from the Notch target reporter with active Notch; control promoter light, run 1, well a and control promoter light, run 1, well b: higher = more light from the viral control promoter (cell number, transfection, viability); uninduced reporter light, run 1, well a: higher = more light from the Notch target reporter without active Notch. Call rule: 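Hit if the duplicate-averaged log2 ratio of induced to control-promoter light gives a plate-wise z beyond ±2, or induced to uninduced beyond ±1.8; weak-control or discordant-duplicate wells dropped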. Meaning of the calls: active = modifier hit (raised or lowered Notch signal); inactive = not a hit.
The screen tested about 22,000 reagents; this is an unselected part of those with a known target gene and a result. Over the whole deposit, 403 (1.9%) were called active. 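Unnormalised raw counts per well; ratio z-scores behind the hit calls and whether each hit raises or lowers signal are not deposited.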 The numbers tell different reagents against one gene apart. A plus sign joins genes that one reagent is predicted to hit. The record does not give: the amount of reagent.

Knock-down of Nipsnap gave: induced reporter light, run 1, well a = 1.87e5; induced reporter light, run 1, well b = 1.74e5; control promoter light, run 1, well a = 2.36e5; control promoter light, run 1, well b = 1.84e5; uninduced reporter light, run 1, well a = 12365; inactive.
CG42539 (retired record) #1 scored induced reporter light, run 1, well a = 1.75e5; induced reporter light, run 1, well b = 1.65e5; control promoter light, run 1, well a = 1.37e5; control promoter light, run 1, well b = 1.37e5; uninduced reporter light, run 1, well a = 12935; inactive.
After knock-down of CG42539 (retired record) #2, the record shows inactive.
Knock-down of firl resulted in: induced reporter light, run 1, well a = 1.37e5; induced reporter light, run 1, well b = 1.68e5; control promoter light, run 1, well a = 1.61e5; control promoter light, run 1, well b = 1.87e5; uninduced reporter light, run 1, well a = 13410; inactive.
With knock-down of alpha-Man-Ib the results were induced reporter light, run 1, well a = 2.19e5; induced reporter light, run 1, well b = 2.08e5; control promoter light, run 1, well a = 3.19e5; control promoter light, run 1, well b = 3.10e5; uninduced reporter light, run 1, well a = 14378; inactive.

Ordered by “uninduced reporter light, run 1, well a” (ascending): 2 of the entries above.
Nipsnap → induced reporter light, run 1, well a = 1.87e5; induced reporter light, run 1, well b = 1.74e5; control promoter light, run 1, well a = 2.36e5; control promoter light, run 1, well b = 1.84e5; uninduced reporter light, run 1, well a = 12365; activity call = inactive
CG42539 (retired record) #1 → induced reporter light, run 1, well a = 1.75e5; induced reporter light, run 1, well b = 1.65e5; control promoter light, run 1, well a = 1.37e5; control promoter light, run 1, well b = 1.37e5; uninduced reporter light, run 1, well a = 12935; activity call = inactive

The results go on.
Depletion of UGP came out at: induced reporter light, run 1, well a = 1.21e5; induced reporter light, run 1, well b = 91750; control promoter light, run 1, well a = 71385; control promoter light, run 1, well b = 32585; uninduced reporter light, run 1, well a = 9440; inactive.
For CG5966, the entry reads induced reporter light, run 1, well a = 2.09e5; induced reporter light, run 1, well b = 1.86e5; control promoter light, run 1, well a = 2.39e5; control promoter light, run 1, well b = 2.10e5; uninduced reporter light, run 1, well a = 15482; inactive.
Knock-down of CG32299 + CG32298 resulted in: induced reporter light, run 1, well a = 1.94e5; induced reporter light, run 1, well b = 1.73e5; control promoter light, run 1, well a = 2.08e5; control promoter light, run 1, well b = 2.28e5; uninduced reporter light, run 1, well a = 13975; inactive.
Chchd3 scored induced reporter light, run 1, well a = 1260; induced reporter light, run 1, well b = 1535; control promoter light, run 1, well a = 3055; control promoter light, run 1, well b = 2755; uninduced reporter light, run 1, well a = 180; inactive.
Against CG31515, the entry reads induced reporter light, run 1, well a = 2.06e5; induced reporter light, run 1, well b = 1.69e5; control promoter light, run 1, well a = 1.98e5; control promoter light, run 1, well b = 1.98e5; uninduced reporter light, run 1, well a = 15095; inactive.
Against Prosalpha4T2, the values are induced reporter light, run 1, well a = 1.61e5; induced reporter light, run 1, well b = 1.52e5; control promoter light, run 1, well a = 1.47e5; control promoter light, run 1, well b = 1.43e5; uninduced reporter light, run 1, well a = 9755; inactive.
For lolal, the entry reads induced reporter light, run 1, well a = 1.04e5; induced reporter light, run 1, well b = 1.05e5; control promoter light, run 1, well a = 1.81e5; control promoter light, run 1, well b = 1.84e5; uninduced reporter light, run 1, well a = 7805; inactive.
